Experimental data published in US20230172979.
For some assays here: At least one result comes from cells or an extract, where the contact may be indirect. Where a protein sequence is shown, tags need not be part of it.

How the values were obtained:
CD30 (TNFRSF8) [1] = target: T1, CD30 (TNFRSF8) (UniProt P28908); experiment: activity in cells; conditions: 3' double C18 hydrocarbon chain lipophilic anchor; aptamer-anchored NK92: killing of CD30+ lymphoma cells up 44, 62, 168% at E/T 3:1, 1:1, 1:3 vs parental NK92; no enhancement on CD30-negative cells; protein on the cell surface; single-stranded DNA; variant of CD30-specific ssDNA aptamer; dose not given here
T1 sequence (looked up, limits assumed): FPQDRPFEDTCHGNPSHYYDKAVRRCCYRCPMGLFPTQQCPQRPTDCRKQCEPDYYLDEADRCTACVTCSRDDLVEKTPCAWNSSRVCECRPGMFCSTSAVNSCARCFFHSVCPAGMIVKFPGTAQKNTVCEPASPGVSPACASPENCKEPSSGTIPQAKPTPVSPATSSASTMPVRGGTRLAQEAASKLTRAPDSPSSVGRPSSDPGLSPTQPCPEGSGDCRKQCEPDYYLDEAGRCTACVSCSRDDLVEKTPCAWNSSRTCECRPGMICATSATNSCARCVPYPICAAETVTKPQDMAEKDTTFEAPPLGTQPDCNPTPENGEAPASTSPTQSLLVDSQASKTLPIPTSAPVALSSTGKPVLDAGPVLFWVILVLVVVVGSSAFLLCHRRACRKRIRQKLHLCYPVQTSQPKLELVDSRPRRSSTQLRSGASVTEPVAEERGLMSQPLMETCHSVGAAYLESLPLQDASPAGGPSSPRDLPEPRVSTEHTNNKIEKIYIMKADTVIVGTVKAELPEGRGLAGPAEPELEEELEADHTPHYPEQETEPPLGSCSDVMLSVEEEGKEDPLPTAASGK

CD30 (TNFRSF8) [2] = target: T1, CD30 (TNFRSF8); experiment: flow cytometry; conditions: 200 nM probe, DPBS, RT, 30 min; binds CD30+ K299, SUDHL-1, HDLM2; no binding to CD30-negative NK92, U937, Maver-1, Jeko-1; protein on the cell surface; label: 5'-Cy3; single-stranded DNA

| Sequence | functional effect of the aptamer (CD30 (TNFRSF8) [1]) | binding result (CD30 (TNFRSF8) [2]) |
| --- | --- | --- |
| ACTGGGCGAAACAAGTCTATTGACTATGAGC [Apt-2×C18 (CD30 aptamer with dual C18 hydrocarbon anchor)] | active |  |
| ACTGGGCGAAACAAGTCTATTGACTATGAGC [CD30-specific ssDNA aptamer] |  | binds |
